Results taken from the supplement of paper PMC10849652.
Some of the results follow.

Amino acid sequences for entries named in this document (tags omitted). A change or cut given only in a name is not applied to a line headed by its entry.
UniProt P12955: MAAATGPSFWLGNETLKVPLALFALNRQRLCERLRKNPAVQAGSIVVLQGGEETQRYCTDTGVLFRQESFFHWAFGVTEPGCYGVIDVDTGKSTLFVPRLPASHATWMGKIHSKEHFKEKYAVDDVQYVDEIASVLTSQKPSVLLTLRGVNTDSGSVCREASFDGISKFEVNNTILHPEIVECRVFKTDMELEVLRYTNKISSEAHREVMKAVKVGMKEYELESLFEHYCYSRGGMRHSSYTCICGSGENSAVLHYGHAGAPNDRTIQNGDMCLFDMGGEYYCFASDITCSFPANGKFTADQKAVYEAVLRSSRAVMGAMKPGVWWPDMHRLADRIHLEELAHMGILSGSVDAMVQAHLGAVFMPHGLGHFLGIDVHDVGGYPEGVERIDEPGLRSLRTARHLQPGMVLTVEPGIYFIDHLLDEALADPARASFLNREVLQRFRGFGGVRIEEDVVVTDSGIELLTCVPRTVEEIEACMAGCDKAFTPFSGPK
UniProt Q9UBV8: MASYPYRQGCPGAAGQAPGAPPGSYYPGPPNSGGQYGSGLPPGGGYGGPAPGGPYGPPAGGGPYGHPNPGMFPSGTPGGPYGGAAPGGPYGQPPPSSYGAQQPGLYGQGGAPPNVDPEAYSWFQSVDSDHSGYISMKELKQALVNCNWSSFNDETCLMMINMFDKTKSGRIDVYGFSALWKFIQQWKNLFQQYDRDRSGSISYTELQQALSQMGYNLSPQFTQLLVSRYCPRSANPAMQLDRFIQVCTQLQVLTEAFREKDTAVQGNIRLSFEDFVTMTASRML
UniProt Q15084: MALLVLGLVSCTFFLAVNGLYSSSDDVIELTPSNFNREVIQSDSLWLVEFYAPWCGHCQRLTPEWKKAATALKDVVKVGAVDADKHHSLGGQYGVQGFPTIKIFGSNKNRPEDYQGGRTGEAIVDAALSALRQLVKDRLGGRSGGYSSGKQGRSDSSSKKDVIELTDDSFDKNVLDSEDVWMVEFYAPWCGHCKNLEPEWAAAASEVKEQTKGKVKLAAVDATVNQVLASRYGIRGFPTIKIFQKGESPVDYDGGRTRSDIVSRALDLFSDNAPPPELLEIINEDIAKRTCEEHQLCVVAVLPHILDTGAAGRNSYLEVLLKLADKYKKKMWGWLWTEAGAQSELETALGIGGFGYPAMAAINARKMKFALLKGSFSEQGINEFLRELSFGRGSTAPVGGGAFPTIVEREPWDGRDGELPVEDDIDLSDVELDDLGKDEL
UniProt Q8WW12: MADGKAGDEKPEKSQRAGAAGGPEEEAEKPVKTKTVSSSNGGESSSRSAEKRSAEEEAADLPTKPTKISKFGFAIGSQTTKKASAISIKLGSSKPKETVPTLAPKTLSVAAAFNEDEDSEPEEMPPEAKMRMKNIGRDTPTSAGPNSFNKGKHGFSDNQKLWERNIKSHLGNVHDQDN
UniProt P17858: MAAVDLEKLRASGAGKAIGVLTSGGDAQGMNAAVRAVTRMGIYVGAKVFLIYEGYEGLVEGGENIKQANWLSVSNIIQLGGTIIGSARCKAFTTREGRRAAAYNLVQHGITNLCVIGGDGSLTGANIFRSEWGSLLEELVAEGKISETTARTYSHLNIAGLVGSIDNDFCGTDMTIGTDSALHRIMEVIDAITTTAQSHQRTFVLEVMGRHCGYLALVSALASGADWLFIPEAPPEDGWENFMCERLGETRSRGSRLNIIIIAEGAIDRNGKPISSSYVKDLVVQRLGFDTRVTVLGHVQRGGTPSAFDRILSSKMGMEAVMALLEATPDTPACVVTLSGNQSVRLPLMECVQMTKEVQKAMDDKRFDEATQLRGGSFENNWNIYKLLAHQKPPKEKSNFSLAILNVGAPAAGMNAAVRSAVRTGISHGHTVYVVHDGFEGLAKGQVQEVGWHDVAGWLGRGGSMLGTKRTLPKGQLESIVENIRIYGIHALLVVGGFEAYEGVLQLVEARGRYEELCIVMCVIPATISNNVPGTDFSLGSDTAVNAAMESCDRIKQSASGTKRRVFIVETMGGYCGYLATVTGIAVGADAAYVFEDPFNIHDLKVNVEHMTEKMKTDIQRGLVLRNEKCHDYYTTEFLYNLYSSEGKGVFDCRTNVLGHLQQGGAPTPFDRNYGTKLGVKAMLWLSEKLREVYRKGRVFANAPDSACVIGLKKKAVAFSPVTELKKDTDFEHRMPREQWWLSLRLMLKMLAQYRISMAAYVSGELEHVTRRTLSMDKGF
UniProt P0DJ07: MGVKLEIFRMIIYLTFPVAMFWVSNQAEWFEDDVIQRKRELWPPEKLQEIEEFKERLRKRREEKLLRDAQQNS
UniProt O15212, whole entry, looked up: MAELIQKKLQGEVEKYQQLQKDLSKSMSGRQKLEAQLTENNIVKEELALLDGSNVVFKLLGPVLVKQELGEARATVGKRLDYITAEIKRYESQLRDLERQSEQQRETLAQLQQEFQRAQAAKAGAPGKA
UniProt Q8NBM8: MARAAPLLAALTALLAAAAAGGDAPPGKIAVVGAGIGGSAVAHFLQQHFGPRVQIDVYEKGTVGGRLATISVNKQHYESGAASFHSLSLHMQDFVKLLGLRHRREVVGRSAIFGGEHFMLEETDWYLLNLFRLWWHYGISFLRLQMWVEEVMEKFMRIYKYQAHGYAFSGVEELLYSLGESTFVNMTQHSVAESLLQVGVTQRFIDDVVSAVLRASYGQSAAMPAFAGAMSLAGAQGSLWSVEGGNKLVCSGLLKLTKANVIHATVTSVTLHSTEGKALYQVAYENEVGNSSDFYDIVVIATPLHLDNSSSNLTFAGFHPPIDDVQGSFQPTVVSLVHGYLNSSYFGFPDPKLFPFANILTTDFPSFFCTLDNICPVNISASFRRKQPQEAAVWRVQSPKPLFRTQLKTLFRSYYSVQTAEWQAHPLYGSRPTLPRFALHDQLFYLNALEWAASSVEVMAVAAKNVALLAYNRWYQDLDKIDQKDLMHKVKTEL
UniProt Q96HS1, whole entry, looked up: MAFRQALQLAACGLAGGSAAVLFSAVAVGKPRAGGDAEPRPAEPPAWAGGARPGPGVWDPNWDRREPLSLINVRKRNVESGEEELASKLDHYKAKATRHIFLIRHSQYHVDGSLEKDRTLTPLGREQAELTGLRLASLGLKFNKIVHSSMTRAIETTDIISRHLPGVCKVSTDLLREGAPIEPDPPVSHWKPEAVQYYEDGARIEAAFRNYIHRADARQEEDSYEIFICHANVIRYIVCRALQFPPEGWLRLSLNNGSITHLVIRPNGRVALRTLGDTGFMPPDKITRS
UniProt Q13371: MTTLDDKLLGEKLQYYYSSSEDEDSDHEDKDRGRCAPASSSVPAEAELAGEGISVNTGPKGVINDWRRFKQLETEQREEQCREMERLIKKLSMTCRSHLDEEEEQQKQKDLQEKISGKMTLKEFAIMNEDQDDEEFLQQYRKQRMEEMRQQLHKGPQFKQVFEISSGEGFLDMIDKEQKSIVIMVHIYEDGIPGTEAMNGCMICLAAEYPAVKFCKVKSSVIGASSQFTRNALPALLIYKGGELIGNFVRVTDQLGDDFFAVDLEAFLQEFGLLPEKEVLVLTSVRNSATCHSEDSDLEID
UniProt Q15366, whole entry, looked up: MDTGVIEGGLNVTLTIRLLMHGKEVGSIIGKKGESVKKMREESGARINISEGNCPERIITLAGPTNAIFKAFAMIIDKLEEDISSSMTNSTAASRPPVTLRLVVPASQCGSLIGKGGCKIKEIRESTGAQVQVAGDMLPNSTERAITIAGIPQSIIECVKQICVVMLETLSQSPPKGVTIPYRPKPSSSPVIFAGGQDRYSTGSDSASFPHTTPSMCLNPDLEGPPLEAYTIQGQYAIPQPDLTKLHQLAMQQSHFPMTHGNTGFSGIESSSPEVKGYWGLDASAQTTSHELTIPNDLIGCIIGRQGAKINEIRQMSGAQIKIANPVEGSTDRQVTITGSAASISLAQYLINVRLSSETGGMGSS
UniProt Q32M88: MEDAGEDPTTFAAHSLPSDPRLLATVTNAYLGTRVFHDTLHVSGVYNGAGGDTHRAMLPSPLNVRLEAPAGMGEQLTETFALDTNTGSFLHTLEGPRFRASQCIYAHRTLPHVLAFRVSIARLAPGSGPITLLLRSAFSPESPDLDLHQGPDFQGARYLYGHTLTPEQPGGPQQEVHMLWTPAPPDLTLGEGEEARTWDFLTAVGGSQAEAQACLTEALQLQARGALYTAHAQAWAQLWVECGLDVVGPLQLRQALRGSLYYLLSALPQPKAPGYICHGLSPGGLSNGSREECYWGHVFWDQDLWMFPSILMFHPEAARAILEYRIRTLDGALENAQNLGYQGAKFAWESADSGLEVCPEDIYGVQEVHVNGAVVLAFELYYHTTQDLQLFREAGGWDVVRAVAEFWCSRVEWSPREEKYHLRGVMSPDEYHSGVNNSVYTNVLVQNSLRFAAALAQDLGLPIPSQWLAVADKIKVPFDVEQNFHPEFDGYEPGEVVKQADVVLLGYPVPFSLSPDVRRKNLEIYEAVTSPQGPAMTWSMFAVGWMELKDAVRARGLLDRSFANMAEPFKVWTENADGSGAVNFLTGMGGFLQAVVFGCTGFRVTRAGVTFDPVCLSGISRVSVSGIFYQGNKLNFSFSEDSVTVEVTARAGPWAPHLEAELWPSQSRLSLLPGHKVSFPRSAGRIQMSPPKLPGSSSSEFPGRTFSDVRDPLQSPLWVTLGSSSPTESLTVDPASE
UniProt Q16342: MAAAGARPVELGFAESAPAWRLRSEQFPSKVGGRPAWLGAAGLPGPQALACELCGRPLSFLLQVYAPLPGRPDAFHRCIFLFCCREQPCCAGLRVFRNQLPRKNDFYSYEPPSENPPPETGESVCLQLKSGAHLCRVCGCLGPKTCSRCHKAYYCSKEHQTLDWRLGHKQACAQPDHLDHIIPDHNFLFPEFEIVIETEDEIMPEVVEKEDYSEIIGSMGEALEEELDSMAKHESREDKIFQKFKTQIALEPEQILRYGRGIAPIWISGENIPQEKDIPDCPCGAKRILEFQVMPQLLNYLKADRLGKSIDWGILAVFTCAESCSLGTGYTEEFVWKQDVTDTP
UniProt O95453: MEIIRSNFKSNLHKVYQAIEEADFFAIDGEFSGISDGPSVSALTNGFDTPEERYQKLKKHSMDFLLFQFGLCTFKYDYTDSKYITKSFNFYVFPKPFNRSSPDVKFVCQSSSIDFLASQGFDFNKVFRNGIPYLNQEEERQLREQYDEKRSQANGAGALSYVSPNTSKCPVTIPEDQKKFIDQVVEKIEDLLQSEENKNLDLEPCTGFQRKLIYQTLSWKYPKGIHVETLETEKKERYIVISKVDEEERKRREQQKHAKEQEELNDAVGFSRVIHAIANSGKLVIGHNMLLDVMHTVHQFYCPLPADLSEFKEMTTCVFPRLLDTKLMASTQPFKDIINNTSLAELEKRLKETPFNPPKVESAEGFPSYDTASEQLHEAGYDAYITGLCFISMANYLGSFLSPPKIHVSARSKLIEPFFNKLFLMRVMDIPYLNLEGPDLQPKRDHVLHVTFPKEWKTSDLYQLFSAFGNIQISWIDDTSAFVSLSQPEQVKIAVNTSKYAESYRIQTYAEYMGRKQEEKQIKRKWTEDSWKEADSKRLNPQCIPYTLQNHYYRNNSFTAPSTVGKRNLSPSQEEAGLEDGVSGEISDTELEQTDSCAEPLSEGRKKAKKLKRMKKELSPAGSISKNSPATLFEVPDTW
UniProt Q13442: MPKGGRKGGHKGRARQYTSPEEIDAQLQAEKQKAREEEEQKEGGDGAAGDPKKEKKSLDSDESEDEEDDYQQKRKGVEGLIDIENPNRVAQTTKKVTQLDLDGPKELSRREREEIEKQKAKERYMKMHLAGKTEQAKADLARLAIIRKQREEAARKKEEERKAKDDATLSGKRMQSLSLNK
UniProt Q9NR12, whole entry, looked up: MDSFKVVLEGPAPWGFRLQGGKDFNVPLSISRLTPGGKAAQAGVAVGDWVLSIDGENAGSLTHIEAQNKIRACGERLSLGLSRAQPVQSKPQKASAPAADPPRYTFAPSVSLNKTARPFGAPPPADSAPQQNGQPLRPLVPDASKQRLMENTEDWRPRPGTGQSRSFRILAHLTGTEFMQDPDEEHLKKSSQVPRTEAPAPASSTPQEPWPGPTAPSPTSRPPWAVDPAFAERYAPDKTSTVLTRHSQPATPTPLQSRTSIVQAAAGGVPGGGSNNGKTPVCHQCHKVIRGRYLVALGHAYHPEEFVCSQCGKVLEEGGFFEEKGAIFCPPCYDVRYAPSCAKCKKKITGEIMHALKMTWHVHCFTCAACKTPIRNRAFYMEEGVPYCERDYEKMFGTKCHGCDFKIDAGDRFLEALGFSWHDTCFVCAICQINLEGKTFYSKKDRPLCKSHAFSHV

How the values were obtained:
Assay in all cases: log2 fold change, soluble protein after heating vs DMSO (PISA); higher = thermal stabilisation; K562 lysate, 10 uM; active = over 0.2 and 3.5 SD of the protein, either way, in both replicates (recomputed)
erlotinib = compound: C#Cc1cccc(Nc2ncnc3cc(OCCOC)c(OCCOC)cc23)c1 [erlotinib]
Method in brief: (§1)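 K562 pellets were dounce-homogenised in PBS pH 7.4 containing 1 mM MgCl2, and the crude extract, at 1 mg/mL protein, was exposed to 10 μM compound for 30 min. Aliquots were heated for 3 min across 48°C-58°C, pooled, brought to 0.5% NP-40 at 4°C and spun at 21,000xg for 90 min, with the supernatant taken as soluble protein. TMTpro 16plex LC-MS/MS with equalised channel sums quantified that protein. Values are log-two fold changes in thermal stability relative to solvent controls, taken from duplicates.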

[1] = compound: C/C(=N\NC(=O)C1=CC(=CC=C1)S(=O)(=O)N2CCOCC2)/C3=C(C=CC(=C3)Cl)O
Method in brief: as §1

[2] = compound: C1=CC(=CC=C1C2=NC3=C(N2)C=C(C=C3)C(=O)N)OC4=CC=C(C=C4)Cl
Method in brief: as §1

[3] = compound: C1=CC2=C(C=CC(=C2)/C=C\3/C(=O)NC(=NCC4=CC=CS4)S3)N=C1
Method in brief: as §1

[4] = compound: C1=CC2=NC=CN=C2C=C1/C=C/3\C(=O)NC(=O)S3
Method in brief: as §1

[5] = compound: C1=CC=C(C=C1)C2=NC(=C(N2)C3=CC=NC=C3)C4=CC(=C(C=C4)Cl)O
Method in brief: as §1

[6] = compound: C1=CC=C2C(=C1)C3=NNC4=CC=CC(=C43)C2=O
Method in brief: as §1

[7] = compound: C1CCN(C1)C(=O)NC2=CC=CC(=C2)NC3=NC=C(C(=N3)NCCC4=CN=CN4)Br
Method in brief: as §1

[8] = compound: C1CN(CCC1(CC2=CC=C(C=C2)Cl)N)C3=NC=NC4=C3C=CN4
Method in brief: as §1

IRAK-1-4 Inhibitor I = compound: C1COCCN1CCN2C3=CC=CC=C3N=C2NC(=O)C4=CC(=CC=C4)[N+](=O)[O-] [IRAK-1-4 Inhibitor I]
Method in brief: as §1

ibrutinib = compound: C=CC(=O)N1CCC[C@@H](n2nc(-c3ccc(Oc4ccccc4)cc3)c3c(N)ncnc32)C1 [ibrutinib]
Method in brief: as §1

[9] = compound: CC(=O)c1cnc2ccc(-c3cc(Cl)c(O)c(Cl)c3)nc2c1N[C@H]1CC[C@H](CN(C)C)CC1
Method in brief: as §1

ralimetinib = compound: CC(C)(C)Cn1c(N)nc2ccc(-c3[nH]c(C(C)(C)C)nc3-c3ccc(F)cc3)nc21 [ralimetinib]
Method in brief: as §1

[10] = compound: CC(C)(O)CC(=O)NCCn1ccc2ncnc(Nc3ccc(Oc4cccc(C(F)(F)F)c4)c(Cl)c3)c21
Method in brief: as §1

[11] = compound: CC(C)C1=C2N=C(C=C(N2N=C1)NCC3=CC=CC=C3)NCCCCCCN
Method in brief: as §1

[12] = compound: CC1=C(C(CC(=O)N1)C2=CC=C(C=C2)C(F)(F)F)C(=O)NC3=C(C=C4C(=C3)C=NN4)F
Method in brief: as §1

[13] = compound: CC1=C(C2=C(C=C1)C(=O)C3=CC=CC=C3N2CCCN)C
Method in brief: as §1

[14] = compound: CC1=C(C=C(C=C1)NC(=O)C2=CC(=CC=C2)C(C)(C)C#N)NC3=CC4=C(C=C3)N=CN(C4=O)C
Method in brief: as §1

[15] = compound: CC1=C(C=C(C=C1)NC(=O)C2=CC(=CC=C2)N(C)C)NC(=O)C3=CC=C(C=C3)O
Method in brief: as §1

[16] = compound: CC1=CC=C(C=C1)SC2=C3C=C(SC3=CN=C2)C(=O)N
Method in brief: as §1

Measured: log2 fold change

PEPD (UniProt P12955)
inactive: erlotinib -0.005 | [1] 0.162 | [2] 0.016 | [3] 0.004 | [4] 0.015 | [5] 0.01 | [6] 0.012 | [7] 0.01 | [8] -0.018 | IRAK-1-4 Inhibitor I 0.081 | ibrutinib 0.03 | [9] -0.035 | ralimetinib -0.009 | [10] -0.061 | [11] -0.008 | [12] 0.024 | [13] 0.02 | [14] 0.013 | [15] -0.003 | [16] -0.005

PEF1 (UniProt Q9UBV8)
inactive: erlotinib -0.01 | [1] 0.012 | [2] -0.014 | [3] -0.001 | [4] -0.039 | [5] -0.012 | [6] -0.021 | [7] -0.016 | [8] 0.056 | IRAK-1-4 Inhibitor I 0.025 | ibrutinib 0.009 | [9] -0.021 | ralimetinib -0.034 | [10] -0.036 | [11] -0.029 | [12] -0.025 | [13] -0.004 | [14] 0.021 | [15] 0.01 | [16] -0.01

PDIA6 isoform 2 (UniProt Q15084)
inactive: erlotinib -0.025 | [1] -0.01 | [2] 0.026 | [3] -0.012 | [4] -0.008 | [5] 0.01 | [6] -0.015 | [7] -0.009 | [8] -0.005 | IRAK-1-4 Inhibitor I 0.002 | ibrutinib -0.022 | [9] -0.027 | ralimetinib -0.049 | [10] -0.01 | [11] -0.012 | [12] -0.028 | [13] -0.011 | [14] -0.028 | [15] 0.018 | [16] -0.024

PCNP (UniProt Q8WW12)
inactive: erlotinib 0.005 | [1] 0.053 | [2] 0.035 | [3] 0.003 | [4] -0.011 | [5] -0.001 | [6] 0.041 | [7] -0.006 | [8] 0.004 | IRAK-1-4 Inhibitor I 0.002 | ibrutinib 0.014 | [9] -0.009 | ralimetinib 0.012 | [10] -0.031 | [11] 0.01 | [12] -0.021 | [13] 0.019 | [14] -0.021 | [15] 0.005 | [16] -0.023

PFKL isoform 2 (UniProt P17858)
inactive: erlotinib 0.106 | [1] 0.039 | [2] 0.066 | [3] 0.032 | [4] -0.011 | [5] 0 | [6] -0.012 | [7] 0.002 | [8] 0.056 | IRAK-1-4 Inhibitor I 0.033 | ibrutinib 0.006 | [9] 0.007 | ralimetinib -0.002 | [10] -0.052 | [11] 0.007 | [12] 0.003 | [13] -0.02 | [14] -0.018 | [15] -0.004 | [16] 0.174

PET100 (UniProt P0DJ07)
inactive: erlotinib 0.027 | [1] 0.01 | [2] 0.056 | [3] -0.041 | [4] -0.056 | [5] 0.005 | [6] 0.003 | [7] 0.034 | [8] -0.12 | IRAK-1-4 Inhibitor I -0.093 | ibrutinib 0.022 | [9] -0.03 | ralimetinib 0.031 | [10] 0.041 | [11] -0.037 | [12] 0.023 | [13] -0.004 | [14] -0.1 | [15] 0 | [16] -0.051

PFDN6 (UniProt O15212)
inactive: erlotinib -0.001 | [1] 0.034 | [2] 0.015 | [3] -0.034 | [4] 0.023 | [5] 0.015 | [6] 0.036 | [7] 0.052 | [8] 0.015 | IRAK-1-4 Inhibitor I 0.006 | ibrutinib 0.187 | [9] 0.013 | ralimetinib -0.001 | [10] 0.024 | [11] 0.038 | [12] -0.023 | [13] -0.02 | [14] 0.078 | [15] -0.006 | [16] 0.027

PCYOX1L (UniProt Q8NBM8)
inactive: erlotinib -0.07 | [1] -0.022 | [2] -0.027 | [3] -0.076 | [4] 0.003 | [5] 0.009 | [6] -0.081 | [7] 0.019 | [8] -0.022 | IRAK-1-4 Inhibitor I 0.014 | ibrutinib 0.018 | [9] -0.013 | ralimetinib -0.016 | [10] -0.025 | [11] -0.055 | [12] 0.011 | [13] 0.212 | [14] 0.011 | [15] 0.03 | [16] -0.053

PGAM5 (UniProt Q96HS1)
inactive: erlotinib -0.03 | [1] -0.002 | [2] -0.025 | [3] 0.032 | [4] -0.016 | [5] -0.009 | [6] -0.022 | [7] -0.002 | [8] 0.016 | IRAK-1-4 Inhibitor I 0.01 | ibrutinib 0.046 | [9] 0.01 | ralimetinib 0.015 | [10] -0.043 | [11] 0.011 | [12] -0.015 | [13] 0.009 | [14] 0.032 | [15] 0.036 | [16] 0.016

PDCL (UniProt Q13371)
inactive: erlotinib -0.047 | [1] -0.071 | [2] 0.096 | [3] 0.047 | [4] -0.003 | [5] -0.009 | [6] -0.085 | [7] 0.028 | [8] 0.057 | IRAK-1-4 Inhibitor I 0.012 | ibrutinib 0.002 | [9] -0.028 | ralimetinib 0.006 | [10] -0.057 | [11] 0.027 | [12] -0.018 | [13] -0.047 | [14] 0.04 | [15] 0.015 | [16] -0.006

PCBP2 isoform 3 (UniProt Q15366)
inactive: erlotinib -0.017 | [1] 0.005 | [2] -0.027 | [3] 0.018 | [4] 0.034 | [5] 0.012 | [6] 0.042 | [7] 0.038 | [8] -0.022 | IRAK-1-4 Inhibitor I -0.026 | ibrutinib -0.007 | [9] 0.025 | ralimetinib 0.021 | [10] 0.022 | [11] -0.019 | [12] -0.034 | [13] 0.06 | [14] -0.017 | [15] -0.016 | [16] -0.017

PGGHG (UniProt Q32M88)
inactive: erlotinib -0.006 | [1] 0.054 | [2] 0.044 | [3] 0.011 | [4] -0.018 | [5] -0.063 | [6] -0.015 | [7] 0.013 | [8] 0.032 | IRAK-1-4 Inhibitor I 0.032 | ibrutinib 0.035 | [9] 0 | ralimetinib 0.017 | [10] -0.032 | [11] -0.024 | [12] 0.059 | [13] -0.026 | [14] 0.023 | [15] -0.038 | [16] -0.008

PDCD2 (UniProt Q16342)
inactive: erlotinib 0.056 | [1] -0.009 | [2] -0.011 | [3] 0 | [4] -0.034 | [5] -0.014 | [6] -0.03 | [7] -0.06 | [8] -0.007 | IRAK-1-4 Inhibitor I -0.026 | ibrutinib 0.062 | [9] 0.005 | ralimetinib 0 | [10] -0.019 | [11] 0.016 | [12] -0.026 | [13] -0.019 | [14] 0.097 | [15] 0.012 | [16] 0.012

PARN (UniProt O95453)
inactive: erlotinib -0.02 | [1] 0.055 | [2] 0.008 | [3] 0.048 | [4] -0.013 | [5] -0.012 | [6] 0.005 | [7] -0.004 | [8] 0.032 | IRAK-1-4 Inhibitor I -0.006 | ibrutinib -0.014 | [9] 0.013 | ralimetinib -0.007 | [10] -0.042 | [11] -0.03 | [12] 0.019 | [13] -0.004 | [14] 0.013 | [15] 0.028 | [16] -0.004

PDAP1 (UniProt Q13442)
inactive: erlotinib -0.01 | [1] -0.022 | [2] 0.02 | [3] -0.005 | [4] 0.001 | [5] -0.007 | [6] 0.023 | [7] 0.016 | [8] -0.012 | IRAK-1-4 Inhibitor I 0.026 | ibrutinib -0.042 | [9] -0.012 | ralimetinib -0.002 | [10] -0.065 | [11] 0.011 | [12] -0.046 | [13] 0.043 | [14] -0.015 | [15] -0.02 | [16] -0.008

PDLIM7 (UniProt Q9NR12)
inactive: erlotinib -0.014 | [1] -0.083 | [2] 0.029 | [3] -0.019 | [4] 0.005 | [5] -0.003 | [6] -0.022 | [7] 0.002 | [8] 0.018 | IRAK-1-4 Inhibitor I 0.003 | ibrutinib 0.039 | [9] -0.004 | ralimetinib -0.02 | [10] -0.014 | [11] 0 | [12] -0.006 | [13] -0.008 | [14] 0.069 | [15] -0.019 | [16] -0.007
